Results are given in words; binding and its absence hold for the method and conditions named. In cells and extracts the contact can be indirect. Here binding means that the protein was enriched with, or labelled near, the bait; the list need not be complete. For part of these data: No binding means not detected with the bait. For part of these data: Tags and fused reporters may be left off the sequences shown.
B1: FabH2, 3-oxo-acyl-ACP synthase (enzyme, UniProt Q9HYR2 1-330)
chain: MPRAAVVCGLGSYLPEAVLSNDMLAAELDTSDAWISSRTGVRQRHIAGDLGSGDLALRAASAALASAGLERVDAVVLATSTGDFCCPATAPRVAARLGLVGALAFDLSAACTGFVYGLASVGSLISAGLADSALLVGVDTFSHTLDPADRSTRALFGDGAGAVVLRAGDAEEEGALLAFDLGSDGHQFDLLMTPAVSRAERSSGQASNYFRMDGKAVFGQAVTQMSDSVRRVLDRVGWQASDLHHLVPHQANTRILAAVADQLDLPVERVVSNIAEVGNTVAASIPLALAHGLRQGILRDGGNMVLTGFGAGLTWGSVALRWPKIVPTMD
B2: KatA, catalase (endogenous) (enzyme, UniProt O52762 1-482)
chain: MEEKTRLTTAAGAPVVDNQNVQTAGPRGPMLLQDVWFLEKLAHFDREVIPERRMHAKGSAAYGTFTVTHDITPYTRAKIFSQVGKKTDMFLRFSTVAGERGAADAERDIRGFSMRFYTEQGNWDLVGNNTPVFYLRDPLKFPDLNHVVKRDPRTNLRNATFKWDFFSHLPESLHQLTIDFSDRGLPKSYRHIHGFGSHTFSFINANNERFWVKFHFKTQQGIENLTNAEAAEVIAQDRESSQRDLYESIEKGDFPRWKMYVQIMPEKEAATYRYNPFDLTKVWPHGDYPLIEVGFFELNRNPDNYFAEVEQAAFTPANVVPGIGFSPDKMLQGRLFSYGDAHRYRLGVNHHQIPVNAARCPHQVYHRDGGMRVDGNNAHQRVTYEPNSFNQWQEQPDFSEPPLSLEGAADHWNHRVDDDYYSQPAALFHLFTDEQKQRLFANIAEDIRDVPEQIQRRQIGLFLKVDPAYGKGVADALGLKLD
B3: ArcB, ornithine carbamoyltransferase (enzyme, UniProt P08308 1-336)
chain: MAFNMHNRNLLSLMHHSTRELRYLLDLSRDLKRAKYTGTEQQHLKRKNIALIFEKTSTRTRCAFEVAAYDQGANVTYIDPNSSQIGHKESMKDTARVLGRMYDAIEYRGFKQEIVEELAKFAGVPVFNGLTDEYHPTQMLADVLTMREHSDKPLHDISYAYLGDARNNMGNSLLLIGAKLGMDVRIAAPKALWPHDEFVAQCKKFAEESGAKLTLTEDPKEAVKGVDFVHTDVWVSMGEPVEAWGERIKELLPYQVNMEIMKATGNPRAKFMHCLPAFHNSETKVGKQIAEQYPNLANGIEVTEDVFESPYNIAFEQAENRMHTIKAILVSTLADI
B4: Fur, ferric uptake regulation protein (protein, UniProt Q03456 1-134)
chain: MVENSELRKAGLKVTLPRVKILQMLDSAEQRHMSAEDVYKALMEAGEDVGLATVYRVLTQFEAAGLVVRHNFDGGHAVFELADSGHHDHMVCVDTGEVIEFMDAEIEKRQKEIVRERGFELVDHNLVLYVRKKK
B5: Pnp, polyribonucleotide nucleotidyltransferase (enzyme, UniProt Q9HV59 1-701)
chain: MNPVTKQFQFGQSTVTLETGRIARQATGAVLVTMDDVSVLVTVVGAKSPAEGRDFFPLSVHYQEKTYAAGRIPGGFFKREGRPSEKETLTSRLIDRPIRPLFPEGFMNEVQVVCTVVSTNKKSDPDIAAMIGTSAALAISGIPFAGPIGAARVGFHPEIGYILNPTYEQLQSSSLDMVVAGTEDAVLMVESEADELTEDQMLGAVLFAHDEFQAVIRAVKELAAEAGKPAWDWKAPAENTVLVNAIKAELGEAISQAYTITIKQDRYNRLGELRDQAVALFAGEEEGKFPASEVKDVFGLLEYRTVRENIVNGKPRIDGRDTRTVRPLRIEVGVLGKTHGSALFTRGETQALVVATLGTARDAQLLDTLEGERKDAFMLHYNFPPFSVGECGRMGSPGRREIGHGRLARRGVAAMLPTQDEFPYTIRVVSEITESNGSSSMASVCGASLALMDAGVPVKAPVAGIAMGLVKEGEKFAVLTDILGDEDHLGDMDFKVAGTDKGVTALQMDIKINGITEEIMEIALGQALEARLNILGQMNQVIAKPRAELSENAPTMLQMKIDSDKIRDVIGKGGATIRGICEETKASIDIEDDGSVKIYGETKEAAEAAKLRVLAITAEAEIGKIYVGKVERIVDFGAFVNILPGKDGLVHISQISDKRIDKVTDVLQEGQEVKVLVLDVDNRGRIKLSIKDVAAAEASGV
B6: PqsD, PQS biosynthetic protein (enzyme, UniProt P20582 1-337)
chain: MGNPILAGLGFSLPKRQVSNHDLVGRINTSDEFIVERTGVRTRYHVEPEQAVSALMVPAARQAIEAAGLLPEDIDLLLVNTLSPDHHDPSQACLIQPLLGLRHIPVLDIRAQCSGLLYGLQMARGQILAGLARHVLVVCGEVLSKRMDCSDRGRNLSILLGDGAGAVVVSAGESLEDGLLDLRLGADGNYFDLLMTAAPGSASPTFLDENVLREGGGEFLMRGRPMFEHASQTLVRIAGEMLAAHELTLDDIDHVICHQPNLRILDAVQEQLGIPQHKFAVTVDRLGNMASASTPVTLAMFWPDIQPGQRVLVLTYGSGATWGAALYRKPEEVNRPC
B7: GlmU, bifunctional enzyme of LPS/peptidoglycan synthesis (enzyme, UniProt Q9HT22 1-454)
chain: MSLEIVILAAGQGTRMRSALPKVLHPIAGKPMLGHVIDCARQLQPERIHVVIGHGADLVRERMAADDLNFVLQAEQLGTGHAVAQALPFLSADQVLILYGDVPLIQLDTLQRLLAQVTPDQLSLLTVDMLDPTGYGRIVRDDQGAVQAIVEHKDATPAQRQIGEINTGILAVPGKRLADWLGRLSNDNAQGEYYLTDVIAMAVGDGLVVASAQPLDAMEVQGVNDRMQQAQLERHYQRLRAEELMRQGVTLLDPQRLDVRGEISVGRDVLIDVNVVLEGRVVIEDDVRIGPNCVIRDSVLRRGAVIKANSHLEGAELGEGSDAGPFARLRPGSVLGARAHVGNFVELKNARLGEGSKAGHLSYLGDAELGANCNIGAGTITCNYDGANKFRTELGDDVFIGSNNSLVAPLKIGDGATTAAGSTITHEVPAKNLAFGRARQKNLENWKRPEKIKK
B8: FabZ, 3-hydroxyacyl-ACP dehydratase (enzyme, UniProt Q9HXY7 1-146)
chain: MMDINEIREYLPHRYPFLLVDRVVELDIEGKRIRAYKNVSINEPFFNGHFPEHPIMPGVLIIEAMAQAAGILGFKMLDVKPADGTLYYFVGSDKLRFRQPVLPGDQLQLHAKFISVKRSIWKFDCHATVDDKPVCSAEIICAERKL
B9: CobL, precorrin-6Y C(5,15)-methyltransferase (enzyme, UniProt Q9HZU0 1-415)
chain: MSSADSTPPWLTLVGIGEDGYPGLGKQARRALLQASRIVGAARQLELLPPCIGAARETWPTPFSLEPLLARRGQPTCVLASGDPMLFGVGASLARQLPATELRVLPAPSSLSLAAARLGWALQEVACLSLVARPLAALQAQVHDGRRLLVLSNDGDSPAAIARLLNARGFGASRLSVLEHLGGPLERRLDGLAGDWSLPRAADLNLVAVECRAGAGAVRLPLTPGLADEAYRHDGQLTKRDVRAVTLARLAPCPGELLWDVGAGCGSIGIEWMRAHPSCRAIAIEANDERQEHIRHNRDALGVPTLHLVAGSAPEALLELPEPDAIFIGGGVTAEGVLETCWERLRPGGRLLANAVTLQSERVLLDWQQRLGGDLTRLGVAHARPLGGFDTWRQALPITLLELRKPAARKPPRDA
B10: FabA, 3-hydroxydecanoyl-ACP dehydratase (enzyme, UniProt O33877 1-171)
chain: MTKQHAFTREDLLRCSRGELFGPGNAQLPAPNMLMIDRIVHISDVGGKYGKGELVAELDINPDLWFFACHFEGDPVMPGCLGLDAMWQLVGFYLGWQGNPGRGRALGSGEVKFFGQVLPTAKKVTYNIHIKRTINRSLVLAIADGTVSVDGREIYSAEGLRVGLFTSTDSF
B11: LipB, octanoyltransferase (enzyme, UniProt Q9X6V9 1-217)
chain: MGLELGFRELGEVPYEPTWHAMQRFVAERDKSVMDEAWLLQHPAVFTQGQAGKAEHVLFPGDIPVIQVDRGGQVTYHGPGQLVTYLLLDVRRLGLGVRELVSRIEQSLIGLLASYDVQAVAKPDAPGVYVDGAKIASLGLRIRNGCSFHGLALNLDMDLRPFQRINPCGYAGMPMTQLRDLVGPVDFAEVCTRLRAELVSRLGYAEQKTLTGGIELT
B12: SpeE2, spermidine synthase 2 (enzyme, UniProt Q9HV34 1-349)
chain: MPAEVAAGLPPLPPNHFYFYPPDPLLEGDGAITAIEDSDPFDQYVYRLRRVLYQGRTRWQNVLIADTYNYDRVLMLDGAIQSAESDESLYHELLVQPAMLAHDEPRDVLIIGGGEGATLREVLSHASVRRAVMVDLDRELVELCREHLFQWHQGAFDDPRCELLAEDGRAYLERDPSLYDVVIIDVVDMLDNGPAQALYTRQFYELLHSRLRPGGVVAVQGLEFSHSDDKPHAALARTLRSVFSQVHSYRATVPSFLSSWGFLLASDWLDTNHWQAEDIDRRIERKLGPLWLDHLDGDYLKACFVMDRETRFLLAQPGPVLEDGVPFVAPPDIEEIEFGPAQLPALART
B13: LpxD, UDP-3-O-acylglucosamine N-acyltransferase (enzyme, UniProt Q9HXY6 1-353)
chain: MMSTLSYTLGQLAAHVGAEVRGDADLPIQGLATLQEAGPAQLSFLANPQYRKYLPESRAGAVLLTAADADGFAGTALVVANPYLAYASLSHLFDRKPKAAAGIHPTAIVAADAEVDPSASVGAYAVIESGARIGAGVSIGAHCVIGARSVIGEGGWLAPRVTLYHDVTIGARVSIQSGAVIGGEGFGFANEKGVWQKIAQIGGVTIGDDVEIGANTTIDRGALSDTLIGNGVKLDNQIMIAHNVQIGDHTAMAACVGISGSAKIGRHCMLAGGVGLVGHIEICDNVFVTGMTMVTRSITEPGSYSSGTAMQPAAEWKKSAARIRQLDDMARRLQQLEKRLAAVTSSGDASSDA
B14: SpoT (enzyme, UniProt Q9HTM0 1-701)
chain: MPGIDAFADRLSSYLGPDQVNLVRRAYYYAEQAHDGQRRRSGEPYVTHPLAVSNILADMHMDHQSLMAAMLHDVIEDTGIAKEALTAQFGETVSELVDGVSKLTQMNFETKAEAQAENFQKMAMAMARDIRVILVKLADRLHNMRTLEVLSGEKRRRIAKETLEIYAPIANRLGMHTMRVEFEDLGFKAMHPMRAERIRQAVKKARGNRREIVGKIQESLVNCLAREGMEGQVIGREKHLYSIYQKMRGKRKAFNEIMDVYAFRIIVDKVDTCYRVLGAVHSLYKPFPGRFKDYIAIPKANGYQSLHTTLFGMHGVPIEIQIRTREMEEMANHGIAAHWLYKSNDETPKGTHARARQWVKGVLELQQRAGNSLEFIENVKIDLFPDEVYVFTPKGRIMELPKGSTAVDFAYAVHTDVGNSCIACRINRRLAPLSEPLQSGQTVEIVTAPGARPNPAWLSFVVTGKARTHIRHALKLQRRSESINLGERLLNKTLTGFDSHLEKIPQERIQAVLAEYRMEVFEDLLEEIGLGNRMAYVVARRLLSSEGEEAPSAEGPLAIRGTEGLVLSYAKCCTPIPGDPIVGHLSAGKGMVVHLESCKNISEVRHNPEKCIQLSWAKDVTGEFNVELRVELEHQRGLIALLATSVNAADGNIEKISMDERDGRISVVQLVVSVHDRVHLARVIKKLRALKGVIRITRLRS

Protein sequences, listed by entry. Tags and fused reporters are not part of them. Lines headed by an entry give the natural chain unless they say otherwise; changes in a name come on top.
UniProt Q9HYR1: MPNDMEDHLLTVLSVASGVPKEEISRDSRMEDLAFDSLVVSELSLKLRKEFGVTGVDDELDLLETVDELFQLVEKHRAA
UniProt O54439: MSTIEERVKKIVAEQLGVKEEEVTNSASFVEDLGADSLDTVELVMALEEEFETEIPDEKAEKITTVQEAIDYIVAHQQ

Each binder was assayed against Acp3 with C-terminal SPA tag (strain CW21) (P. aeruginosa) (UniProt Q9HYR1) (assay: affinity purification with mass spectrometry; tandem (sequential peptide) affinity purification of chromosomally SPA-tagged ACPs from stationary-phase PAO1 lysates: anti-FLAG M2 magnetic beads, 0.1% Triton X-100, TEV cleavage, calmodulin Sepharose, 4°C; untagged PAO1 as control; only proteins identified in both of two experiments reported).
With B1 the binding was “binds”. With B2 the binding was “binds”. In the case of B3, the binding is reported as “binds”. B4 was tested, and the binding was “binds”. In the case of B5, the binding is reported as “binds”. For B6, the binding was “binds”. B7 was tested, and the binding was “binds”.

The binders below were run against AcpP with C-terminal SPA tag (strain CW20) (P. aeruginosa) (UniProt O54439) in the same assay as above.
In the case of B8, the binding is reported as “binds”. For B7, the binding was “binds”. In the case of B9, the binding is reported as “binds”. For B10, the binding was “binds”. In the case of B11, the binding is reported as “binds”. With B12 the binding was “binds”. In the case of B13, the binding is reported as “binds”. B14 was tested, and the binding was “no binding”.

From paper PMC6158461
